From paper PMC10427642
Results are given in words; binding and its absence hold for the method and conditions named. Binding seen in cells or lysates may run through a third protein. Some entries that bind do so weakly or less than the wild type.

Amino acid sequences for entries named in this document (tags omitted).
UniProt O00425: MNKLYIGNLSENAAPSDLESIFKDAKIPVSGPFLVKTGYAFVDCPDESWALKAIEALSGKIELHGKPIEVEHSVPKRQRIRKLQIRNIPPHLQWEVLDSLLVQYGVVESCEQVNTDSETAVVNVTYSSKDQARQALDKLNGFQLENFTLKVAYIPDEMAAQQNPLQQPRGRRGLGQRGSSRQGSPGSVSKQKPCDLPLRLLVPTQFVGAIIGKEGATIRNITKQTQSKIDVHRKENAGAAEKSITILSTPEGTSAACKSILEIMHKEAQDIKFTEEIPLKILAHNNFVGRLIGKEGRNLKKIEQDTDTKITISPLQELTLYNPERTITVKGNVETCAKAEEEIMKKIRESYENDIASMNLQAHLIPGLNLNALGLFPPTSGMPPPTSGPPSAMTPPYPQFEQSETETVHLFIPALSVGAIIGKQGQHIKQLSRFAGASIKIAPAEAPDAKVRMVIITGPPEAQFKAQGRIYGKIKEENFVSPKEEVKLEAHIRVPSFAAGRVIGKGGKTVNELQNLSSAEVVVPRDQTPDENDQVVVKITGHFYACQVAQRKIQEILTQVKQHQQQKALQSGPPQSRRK
UniProt Q15717: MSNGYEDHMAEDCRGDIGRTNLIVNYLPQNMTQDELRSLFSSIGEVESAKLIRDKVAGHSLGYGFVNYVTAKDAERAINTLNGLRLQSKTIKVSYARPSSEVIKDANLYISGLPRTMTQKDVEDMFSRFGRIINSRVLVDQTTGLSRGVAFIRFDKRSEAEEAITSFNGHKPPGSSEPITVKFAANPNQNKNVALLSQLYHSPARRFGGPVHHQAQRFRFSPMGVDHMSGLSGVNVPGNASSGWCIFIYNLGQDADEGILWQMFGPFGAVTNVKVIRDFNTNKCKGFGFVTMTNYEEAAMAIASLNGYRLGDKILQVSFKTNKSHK

Experiments:
[1] = biological target: IGF2BP3 (human (endogenous in GC cells)) (UniProt O00425); test: co-IP; GC cells; precipitation with anti-IGF2BP3 or anti-HUR, Pierce Co-Immunoprecipitation Kit; also in cells transfected with NR_033928 siRNAs (less co-precipitate)
[2] = biological target: HUR (human (endogenous in GC cells)) (UniProt Q15717); test: as above

Row | Substance | binding [1] | binding [2]
1 | HUR (from UniProt Q15717 1-326) | binds | –
2 | IGF2BP3 (from UniProt O00425 1-579) | – | binds
